Measurements reported in PMC5454536.
No constants are given. Whether binding was seen depends on the method and setting. Some binding calls cover weakened binding; strength is not graded here.

By UniProt entry, the sequences of proteins in these tests, tags left out. Where a name states a change or a piece, a line headed by the entry shows the natural chain unless it says otherwise.
UniProt P0AGA2: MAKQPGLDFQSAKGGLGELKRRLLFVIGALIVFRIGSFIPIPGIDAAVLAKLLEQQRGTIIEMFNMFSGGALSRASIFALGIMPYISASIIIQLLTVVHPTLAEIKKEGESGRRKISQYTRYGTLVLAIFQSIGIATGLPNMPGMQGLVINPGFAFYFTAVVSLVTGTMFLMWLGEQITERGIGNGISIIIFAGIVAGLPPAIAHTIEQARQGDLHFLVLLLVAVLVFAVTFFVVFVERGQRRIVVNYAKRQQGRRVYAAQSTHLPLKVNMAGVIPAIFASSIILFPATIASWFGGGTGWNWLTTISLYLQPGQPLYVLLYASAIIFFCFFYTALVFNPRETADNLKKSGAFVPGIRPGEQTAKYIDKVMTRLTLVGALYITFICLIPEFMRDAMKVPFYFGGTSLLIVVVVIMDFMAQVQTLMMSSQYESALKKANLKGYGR

Biological target: T1, SRP receptor (SR), FtsY (E. coli) (UniProt P10121)
T1 sequence: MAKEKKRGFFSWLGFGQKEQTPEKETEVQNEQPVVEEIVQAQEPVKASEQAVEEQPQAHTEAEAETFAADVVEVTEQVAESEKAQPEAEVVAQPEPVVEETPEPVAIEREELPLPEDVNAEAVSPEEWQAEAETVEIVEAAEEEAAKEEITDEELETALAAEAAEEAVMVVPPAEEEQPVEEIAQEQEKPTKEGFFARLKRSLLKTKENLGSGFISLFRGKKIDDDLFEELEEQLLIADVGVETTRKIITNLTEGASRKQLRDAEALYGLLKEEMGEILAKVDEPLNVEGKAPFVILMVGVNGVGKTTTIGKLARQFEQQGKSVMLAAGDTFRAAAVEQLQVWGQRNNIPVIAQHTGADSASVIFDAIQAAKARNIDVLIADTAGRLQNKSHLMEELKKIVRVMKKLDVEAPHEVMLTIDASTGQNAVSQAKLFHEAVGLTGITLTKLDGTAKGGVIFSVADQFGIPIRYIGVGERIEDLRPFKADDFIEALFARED
Assay: cryo-EM structure; RNC_(1A9L)-85 or -135 (250 nM) with SRP, SR and SecYEG, GDP:AlFx, Buffer C (50 mM HEPES-KOH, 85 mM KOAc, 15 mM Mg(OAc)2, 0.02% DDM, 5 mM spermidine, 0.5 mM spermine); both purified

- binding: binds
Substance: SecYEG translocon (from UniProt P0AGA2 14-429; P0AG96 1-127; P0AG99 1-110) (complex)
